We go through 37 compounds from PubChem BioAssay AID1487 (National Center for Advancing Translational Sciences (NCATS), 2009).

The nature of this test: qHTS Assay for Modulators of Lamin A Splicing. Conditions: HeLa LMNA splicing GFP/RFP minigene ratio, 48 h. The gist of the method:
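S3 HeLa cells stably expressing lamin A-EGFP splicing minigene plus DsRed2, 600 cells/well, 48 h compound exposure at 37C. Laser-scanning cytometry; analysed as GFP (500-530 nm)/RFP (575-640 nm) total intensity ratio; 0.5% DMSO vehicle.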
On the technique in general: qHTS replaces the single test concentration by a dilution series.

Where [1] appears, read: measured here: GFP splicing reporter channel.
[2] abbreviates: measured here: RFP viability control channel.

The other results are listed elsewhere or left out. Further columns of the screen follow, without active or inactive calls. Compounds called inactive in the main read-out are mostly missing here. The note in brackets gives the kind of curve behind each potency; many fits are weak.

As to `CC1CN(C(=O)N2CCC(C(=O)NC3CCCCCC3)CC2)c2cc(Cl)ccc2O1` (stereo unspecified), the AC50 runs as follows: under setting [1], 14.1 µM [rising, partial curve]; under setting [2], 20 µM [rising, single point].
`O=C(NC(=S)NCCc1ccc(Cl)cc1)c1ccco1`: the AC50 runs as follows: under setting [1], 12.6 µM [rising, single point]; under setting [2], 35.5 µM [rising, single point].
For `CCc1ccccc1-n1c(-c2ccncc2)n[nH]c1=S`, the AC50 under setting [2] is 2.24 µM [rising, partial curve, poor fit].
With `Cc1cc(C)nc(SC2CCCCC2NS(=O)(=O)c2ccc(Cl)cc2)n1` (stereo unspecified), the AC50 under setting [2] was 17.8 µM [rising, single point].
Same read-out and setting: the value for `c1cncc(Oc2cccc(Oc3cccnc3)c2)c1` was 35.5 µM [rising, single point]; that for `OC(COc1ccc2ccccc2c1Br)Cn1ccnc1` (stereo unspecified) was 22.4 µM [rising, single point].
Still for that read-out and setting: to `COC(=O)c1ccc2nc(Nc3nc4c(F)cc(F)cc4s3)sc2c1` belongs 0.126 µM [rising, full curve].
As to `Cc1ccc(OCCn2cnc3c(N)ncnc32)cc1`, the AC50 is 0.01 µM [rising, full curve, poor fit] under setting [1] and 12.6 µM [rising, partial curve] under setting [2].
On to `O=C(O)c1ccccc1C(=O)NCCc1ccc(Cl)cc1`, for which the AC50 under setting [2] is 0.02 µM [falling, full curve, poor fit].
Same read-out and setting: to `COc1ccc(OC)c(Nc2ncnc3c2nc2n3CCCC2)c1` belongs 10 µM [rising, partial curve]; to `Cc1cccc(NC(=O)c2cc3ccccc3o2)c1`, 3.98 µM [rising, single point]; to `O=C(/C=C/c1ccccc1)NC(=S)Nc1ccccc1C(=O)NC1CCCCC1`, 14.1 µM [falling, single point].
The same measure, in the same setting: the value for `Nc1c(-c2ccccc2)c(CSc2nc3ccccc3[nH]2)nn1-c1cccc(C(=O)O)c1` was 0.00355 µM [falling, full curve, poor fit].
In the case of `COc1cc(O)c2c(=O)c3c(OC)c(O)ccc3oc2c1`, the AC50 was 25.1 µM [falling, single point] under setting [1] and 15.8 µM [falling, partial curve] under setting [2].
With `Cn1c(COc2ccccc2)nnc1SCCN1CCOCC1`, under setting [2], the AC50 is 0.112 µM [falling, full curve, poor fit].
Still for that read-out and setting: to `COc1ccc(N2CCN(S(=O)(=O)c3ccc(OC)cc3)CC2)cc1` belongs 11.2 µM [rising, partial curve, poor fit].
Consider `O=C(CN1CCCN(S(=O)(=O)c2ccc(Br)cc2)CC1)Nc1ccc2c(c1)OCO2`, for which the half-maximal activity concentration (AC50) is, setting by setting: under setting [1], 35.5 µM [rising, single point]; under setting [2], 35.5 µM [rising, single point].
In the case of `O=C(CN1C(=O)CCC1=O)NNc1ccc2ccccc2c1`, the AC50 under setting [1] is 3.16 µM [rising, single point] and the AC50 under setting [2] was 2.82 µM [rising, partial curve].
`COc1ccccc1-c1nc(Nc2ccncc2)c2ccccc2n1`: under setting [1], the AC50 was 7.94 µM [falling, partial curve].
For the compound `Cc1ccc(C(=O)/C=C/C(=O)O)cc1`, the half-maximal activity concentration (AC50) reads like this: under setting [1], 35.5 µM [falling, single point]; under setting [2], 11.2 µM [rising, partial curve].
In the case of `O=C(Nc1cccc(C(=O)N2CCN(c3cccc(Cl)c3)CC2)c1)c1nsc2ccccc12`, the AC50 under setting [2] was 11.2 µM [falling, single point].
Same read-out and setting: the value for `COc1ccc(CN2CCN(CCCCOc3ccc(Cl)cc3)CC2)c(OC)c1OC` was 5.62 µM [rising, partial curve, poor fit]; that for `CCOC(=O)N1CCC(NC(=O)c2ccc3c(c2)N(Cc2ccc(F)cc2)CCS3)CC1` was 10 µM [rising, partial curve].
The same measure, in the same setting: to `CCOC(=O)/C(=N/Nc1ccc(Cl)cc1)Sc1nnnn1-c1ccc(C)cc1` belongs 10 µM [rising, partial curve, poor fit].
`O=C(Nc1ccc(Cl)c(Cl)c1)Nc1ccc(N2CCCC2)c(S(=O)(=O)Nc2ccccc2Cl)c1`: the AC50 under setting [1] was 5.62 µM [rising, single point] and the AC50 under setting [2] is 5.62 µM [rising, single point].
Regarding `CN1CCN(C=NC2=NN(c3cccc(C(F)(F)F)c3)CC2)CC1`, the AC50 under setting [2] was 0.0126 µM [rising, full curve, poor fit].
With `COc1cc2[nH]c(=S)nc(Nc3ccc(NC(C)=O)cc3)c2cc1OC`, the AC50 under setting [1] is 31.6 µM [falling, partial curve] and the AC50 under setting [2] is 22.4 µM [falling, single point].
As for `Cc1[nH]c2ccccc2c1C(c1ccncc1)N1CCC(C)CC1` (stereo unspecified), the half-maximal activity concentration (AC50) under setting [1] is 31.6 µM [falling, single point].
On to `O=C(Nc1ccccc1)Nc1snnc1C(=O)Nc1cccc(O)c1`, for which, under setting [2], the AC50 was 39.8 µM [falling, partial curve].
For `O=C(/C=C/c1ccccc1)N/C(=C/c1ccccc1)C(=O)NCCO`, the AC50 under setting [1] was 35.5 µM [falling, single point] and the AC50 under setting [2] was 35.5 µM [falling, single point].
With `CCc1nc(SCC(=O)N2CCN(c3ccccc3)CC2)c2oc3ccccc3c2n1`, the half-maximal activity concentration (AC50) runs as follows: under setting [1], 15.8 µM [falling, single point]; under setting [2], 17.8 µM [falling, partial curve].
For `Nc1c(C(=O)Nc2ccc3c(c2)OCCO3)nnn1CCc1ccccc1`, the AC50 under setting [2] was 5.62 µM [rising, single point].
For `CCOc1ccccc1NC(=O)c1c(Br)cnn1C`, the AC50 runs as follows: under setting [1], 8.91 µM [falling, partial curve, poor fit]; under setting [2], 11.2 µM [falling, partial curve, poor fit].
As for `Cc1c(C(=O)NC2CCCc3ccccc32)oc2ccccc12` (stereo unspecified), the AC50 under setting [2] is 12.6 µM [rising, single point].
Turning to `CC(C)(C)OC(=O)N1CCC[C@H]1c1nnc(SCc2c(F)cccc2Cl)o1`, the AC50 is, setting by setting: under setting [1], 12.6 µM [rising, single point]; under setting [2], 11.2 µM [rising, single point].
As for `Cc1ccc(NS(=O)(=O)c2cc(NC(=O)c3cc4c(s3)CCCC4)ccc2C)c(C)c1`, the AC50 under setting [2] is 22.4 µM [rising, partial curve, poor fit].
For the compound `O=C(CS(=O)c1ccc(C(F)(F)F)cc1[N+](=O)[O-])Oc1ccc(Cl)cc1` (stereo unspecified), the AC50 is, setting by setting: under setting [1], 35.5 µM [falling, single point]; under setting [2], 35.5 µM [falling, single point].

As usually defined, the AC50 is the concentration giving half of the maximal activity seen.
